{"source": "PubChem BioAssay AID2417", "about": "(National Center for Advancing Translational Sciences (NCATS), 2010)", "note": "Hit rate of the full screen: of about 140,000 compounds, about 4,300 (3.1%) were called active. Inconclusive results, whose numbers are uncertain, are shown with a selection of clear calls.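 The calls were made as follows: active = readout at or below -70, meaning at least 70% loss of cells showing the perinucleolar compartment, a nuclear body marking cancer cells; inconclusive = readout between -30 and a set limit; inactive = the rest.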", "data": [{"assay": "High Content Assay for Compounds that inhibit the Assembly of the Perinucleolar Compartment;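 also: plate controls were DMSO wells for no effect and camptothecin positive control wells for full effect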", "conditions": "PC3M PTB-GFP, PNC prevalence imaging, 16 h; at 10 µM; stronger effect = lower value", "method_in_brief": "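PC3M cells stably expressing PTB-GFP, 750–1000 cells/well, treated 16 h at 37 °C with compound (23 nl of library stock), in duplicate. After paraformaldehyde fixation and Hoechst stain, imaged at 20x; PNC prevalence scored by image analysis.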", "values": [{"smiles": "O=S(=O)(NCc1ccccc1)c1ccc(S(=O)(=O)N(Cc2cccs2)CC2CCCO2)cc1", "note": "(stereo not given)", "activity change (PNC), negative = inhibition": "inconclusive: -31.5%"}, {"smiles": "O=C(NC1CCSC1=O)c1ccc(Cl)cc1", "note": "(stereo not given)", "activity change (PNC), negative = inhibition": "inconclusive: -32.6%"}, {"smiles": "Cc1cccc(Nc2nnc(SC/C(O)=C(\\C#N)c3nc4ccccc4[nH]3)s2)c1", "activity change (PNC), negative = inhibition": "inconclusive: -49.6%"}, {"smiles": "OC(COC(c1ccccc1)c1ccccc1)CN1CCN(c2ccccn2)CC1", "note": "(stereo not given)", "activity change (PNC), negative = inhibition": "inconclusive: -48.4%"}, {"smiles": "Cc1ccc(CN/C=C/C(=O)c2ccc(Br)cc2)cc1", "activity change (PNC), negative = inhibition": "inconclusive: -39.7%"}, {"smiles": "CCNc1nc(NCC)nc(SCCOc2ccc(C)cc2)n1", "activity change (PNC), negative = inhibition": "active: -113%"}, {"smiles": "CCOC(=O)C1=C(Nc2ccc(Br)cc2)CC(C)(O)C(C(=O)OCC)C1c1ccccc1", "note": "(stereo not given)", "activity change (PNC), negative = inhibition": "inactive: -9.89%"}, {"smiles": "COc1cc(/C=C/C(=O)NC(C)C)ccc1OCc1ccccc1", "activity change (PNC), negative = inhibition": "inconclusive: -76.5%"}, {"smiles": "Brc1ccc(C=Nc2ccc(Nc3ccccc3)cc2)s1", "activity change (PNC), negative = inhibition": "inactive: -6.65%"}, {"smiles": "COC(=O)c1cc(C#N)c(Oc2ccccc2OC)nc1C", "activity change (PNC), negative = inhibition": "inconclusive: -45.7%"}, {"smiles": "CCOC(=O)N1CCC(NC(=O)CS(=O)(=O)Cc2nc(-c3ccccc3C)oc2C)CC1", "activity change (PNC), negative = inhibition": "inconclusive: -53.6%"}, {"smiles": "O=C(NC1CCCCCCC1)c1ccccc1-c1ccccc1", "activity change (PNC), negative = inhibition": "active: -113%"}, {"smiles": "CC(C(=O)Nc1ccccc1-c1ccccc1)N1CCN(S(=O)(=O)c2ccccc2)CC1", "note": "(stereo not given)", "activity change (PNC), negative = inhibition": "inconclusive: -35.3%"}, {"smiles": "COc1ccc(/C=N/NC(=O)CCn2cnc(-c3ccccc3)c2-c2ccccc2)cc1OC", "activity change (PNC), negative = inhibition": "inconclusive: -72.3%"}, {"smiles": "CC(=O)Oc1cc(OC(C)=O)c2c(C)cc(=O)oc2c1", "activity change (PNC), negative = inhibition": "inconclusive: -72.2%"}, {"smiles": "Brc1ccc(OCc2ccccc2)c(CNCc2ccncc2)c1", "activity change (PNC), negative = inhibition": "active: -109%"}, {"smiles": "CCC(=O)c1ccc(OCC(O)Cn2c(C)nc3ccccc32)cc1", "note": "(stereo not given)", "activity change (PNC), negative = inhibition": "active: -121%"}, {"smiles": "COc1ccc(N2C(=O)C(Cl)=C(N3CCCC3)C2=O)cc1", "activity change (PNC), negative = inhibition": "inconclusive: -52.5%"}, {"smiles": "CCCCNc1c([N+](=O)[O-])cc(C)cc1[N+](=O)[O-]", "activity change (PNC), negative = inhibition": "inconclusive: -50.6%"}, {"smiles": "C/[N+]([O-])=C\\c1coc2ccccc2c1=O", "activity change (PNC), negative = inhibition": "inactive: 24.5%"}, {"smiles": "CCN(CCNC(=O)c1ccc2nc(-c3ccccc3NC(C)=O)c(=O)[nH]c2c1)c1ccccc1", "activity change (PNC), negative = inhibition": "inconclusive: -42.9%"}, {"smiles": "CCN(CCNC(=O)CS(=O)(=O)Cc1nc(-c2cccc(OC)c2)oc1C)c1ccccc1", "activity change (PNC), negative = inhibition": "inconclusive: -75.1%"}, {"smiles": "COc1ccccc1-c1nc(C#N)c(N2CCC(Cc3ccccc3)CC2)o1", "activity change (PNC), negative = inhibition": "inconclusive: -45.6%"}, {"smiles": "S=C(Nc1ccc(Cl)cc1Cl)N1CCCCC1", "activity change (PNC), negative = inhibition": "inconclusive: -32.9%"}, {"smiles": "CCOC(=O)c1ccc(CSc2n[nH]c(C)n2)o1", "activity change (PNC), negative = inhibition": "inconclusive: -62.7%"}, {"smiles": "O=C(NCCc1ccncc1)Nc1ccccc1", "activity change (PNC), negative = inhibition": "active: -100%"}, {"smiles": "COc1ccc2c(c1)c1nc(SCC(C)C)n(CCO)c(=O)c1n2C", "activity change (PNC), negative = inhibition": "inactive: 7.2%"}, {"smiles": "O=C(NNC(=O)c1sc2ccccc2c1Cl)Nc1ccc(Cl)cc1", "activity change (PNC), negative = inhibition": "inactive: -28%"}, {"smiles": "Cc1nn(Cc2ccccc2)c(C)c1NC(=O)CSc1nc2c(c(C(F)(F)F)n1)CCc1ccccc1-2", "activity change (PNC), negative = inhibition": "inconclusive: -44%"}, {"smiles": "Cc1ccc(C)c(Nc2nc3c(S(=O)(=O)c4ccccc4)nnn3c3ccccc23)c1", "activity change (PNC), negative = inhibition": "inconclusive: -70%"}, {"smiles": "Cc1cc(C)c(NC(=O)NC2CCCCC2)c(C)c1", "activity change (PNC), negative = inhibition": "active: -113%"}, {"smiles": "COc1nc2ccc(C)cc2cc1-c1noc(-c2cccnc2)n1", "activity change (PNC), negative = inhibition": "inconclusive: -55.9%"}, {"smiles": "CCc1cc(C(=O)NNC(=S)Nc2ccccc2C)cs1", "activity change (PNC), negative = inhibition": "inconclusive: -47.8%"}, {"smiles": "O=C(Nc1cc(C(=O)N2CCCC2)ccc1N1CCCC1)c1ccccc1F", "activity change (PNC), negative = inhibition": "inactive: 38.7%"}, {"smiles": "Cc1nc(N2CCN(Cc3ccc4c(c3)OCO4)CC2)nc2c1C(=O)CC(c1ccco1)C2", "note": "(stereo not given)", "activity change (PNC), negative = inhibition": "inactive: 26.8%"}, {"smiles": "COc1cc([N+](=O)[O-])cc(/C=N/NC(=O)c2ccc(C)nc2)c1O", "activity change (PNC), negative = inhibition": "inactive: 49.2%"}, {"smiles": "CCn1c(-c2csc(-c3ccccc3)n2)n[nH]c1=S", "activity change (PNC), negative = inhibition": "inactive: -11.9%"}, {"smiles": "COCCCNC(=O)COc1ccc(Cl)c(C)c1", "activity change (PNC), negative = inhibition": "inconclusive: -38%"}, {"smiles": "COc1ccc(C2C3=C(CC(C)(C)CC3=O)Nc3c2c(=O)[nH]c(=O)n3Cc2ccccc2)cc1OC", "note": "(stereo not given)", "activity change (PNC), negative = inhibition": "active: -84.6%"}, {"smiles": "O=c1[nH]cnc2c1C(c1ccccc1[N+](=O)[O-])c1c(nc[nH]c1=O)O2", "activity change (PNC), negative = inhibition": "inconclusive: -65.2%"}, {"smiles": "COC(=O)C1CCN(C(=O)CCCOc2ccccc2)CC1", "activity change (PNC), negative = inhibition": "inconclusive: -63.2%"}, {"smiles": "CCN(CC)S(=O)(=O)c1ccc(C(=O)OCC(=O)Nc2ccc(-c3nc4ccc(C)cc4s3)cc2)cc1", "activity change (PNC), negative = inhibition": "inactive: -29.3%"}, {"smiles": "CCC(CC)NC(=O)COC(=O)c1cc(Br)ccc1Cl", "activity change (PNC), negative = inhibition": "inconclusive: -31.1%"}, {"smiles": "Cc1ccc(C)c2[nH]c(=O)c(CN(Cc3ccco3)S(=O)(=O)c3ccc4c(c3)OCCO4)cc12", "activity change (PNC), negative = inhibition": "inconclusive: -65%"}, {"smiles": "CC(=O)N1c2c(cc(Br)cc2S(=O)(=O)N2CCN(C(=O)c3ccco3)CC2)CC1C", "note": "(stereo not given)", "activity change (PNC), negative = inhibition": "active: -100%"}]}]}
